The source of these data is PubChem BioAssay AID2685 (National Center for Advancing Translational Sciences (NCATS), 2010).

Structures are written as SMILES. Some of the results follow. Shown are side measurements of this screen, not its main read-out; they come without a call. Most of these compounds were active or inconclusive in the main read-out, so they are no random draw. The note in brackets gives the kind of curve behind each potency; many fits are weak.

This experiment can be described thus: qHTS Assay for Lipid Storage Modulators in Drosophila S3 Cells.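 As to cell number change: cells counted by Cell Tracker Red CMTPX staining in the red channel.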 To be noted: BODIPY lipid droplet fluorescence, 18-24 h; for cell number change: measured here: cell count max response, cells fed with added oleic acid. The gist of the method: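 Drosophila S3 cells got compounds at several concentrations plus oleic acid (400 uM solution). Laser-scanning cytometry with 488 nm excitation read lipid droplets at 500-530 nm and cells at 575-640 nm. Percent activity was relative to 20 uM Triacsin C.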
(In general: qHTS replaces the single test concentration by a dilution series.)

Setting [1] is: measured here: lipid fluorescence (Fed channel) AC50, cells fed with added oleic acid.
Setting [2] is: measured here: cell number channel AC50, cells fed with added oleic acid.

Regarding `O=C(O)COc1ccc(/C=C/C(=O)c2ccc3ccccc3c2)cc1`, the cell number change was -2.86%.
The AC50 is the concentration at which the activity in the assay is half-maximal. Regarding `CC(=O)Nc1ccc(C(=O)OCC(=O)NCCC2=CCCCC2)cc1`, the cell number change was -13.3%. Besides, under setting [1], the AC50 was 6.51 µM [falling, single point].
Regarding `CC(=O)C1=C(O)C(=O)N(c2ccc(S(N)(=O)=O)cc2)C1c1ccccc1F` (stereo not drawn), the cell number change turned out to be 25.4%. The AC50 under setting [2] was 0.164 µM [rising, full curve, poor fit].
`CCOc1ccc(CN(C)C(=O)CN2C(=O)NC3(CCCc4ccccc43)C2=O)cc1` (stereo not drawn): the cell number change was -4.15%. Further, the AC50 under setting [1] was 29.1 µM [rising, single point].
In the case of `COC(=O)c1sccc1NC(=O)CSc1ccccc1NS(=O)(=O)c1cc(Cl)ccc1Cl`, the cell number change came to 86.5%. Also, the concentration at half-maximal activity (AC50) under setting [1] is 18.4 µM [rising, partial curve].
For the molecule `CCC(C)N(C(=O)COC(=O)C1C(C(=O)OC)=C(C)NC(C)=C1C(=O)OC)C1CCS(=O)(=O)C1` (stereo not drawn), the cell number change amounted to 9.6%. In addition, the AC50 under setting [2] is 3.26 µM [falling, single point].
For the molecule `Cc1ccc(NS(=O)(=O)c2ccc(CCC(=O)NC3CC3)cc2)cc1`, the cell number change is 50.3%. Moreover, the AC50 under setting [2] is 5.17 µM [rising, partial curve, poor fit]. In addition, the AC50 under setting [1] is 0.461 µM [rising, partial curve].
Regarding `O=C(c1ccc([N+](=O)[O-])cc1)N(c1ccccn1)c1ccccn1`, the cell number change was -8.71%.
As for `COC(=O)c1cc(NC(=O)CC2C(=O)NCCN2C(=O)c2ccc(F)cc2)cc(C(=O)OC)c1` (stereo not drawn), the cell number change is -0.0775%. For the same molecule, the AC50 under setting [1] was 0.259 µM [rising, full curve, poor fit].
In the case of `Cc1ccc(NC(=O)C2(S(=O)(=O)c3ccc(Cl)cc3)CC2)c(Br)c1`, the cell number change was -16.2%. Moreover, the AC50 under setting [2] is 2.06 µM [falling, single point].
With `CCN(CC)CCNC(=O)c1ccc2c(=O)n(C3CCCC3)c(=S)[nH]c2c1`, the cell number change is -22.8%. For the same molecule, under setting [1], the AC50 was 0.00517 µM [falling, full curve, poor fit].
Regarding `COc1cc(NC(=O)Cn2c(C)cc3ccccc3c2=O)cc(OC)c1OC`, the cell number change is -8.37%. Further, the AC50 under setting [1] was 1.3 µM [rising, partial curve].
In the case of `Cc1c(CN(C)C)c2c(n1Cc1ccccc1)C(=O)c1ccccc1-2`, the cell number change is 22.2%.
For the molecule `C/C(=N\NC(=S)NC1CCCCC1)c1cccc(C(F)(F)F)c1`, the cell number change is -1.85%. The AC50 under setting [1] was 0.231 µM [rising, full curve].
Regarding `CC1CN(c2ccc(C(=O)c3ccccc3C(=O)O)cc2[N+](=O)[O-])CC(C)O1` (stereo not drawn), the cell number change is 36.6%. In addition, the concentration at half-maximal activity (AC50) under setting [2] is 25.9 µM [rising, single point].
In the case of `CCCN1C(=O)S/C(=C/c2ccc(N3CCOCC3)o2)C1=O`, the cell number change is -60%. The AC50 under setting [2] is 18.4 µM [falling, single point]. For the same molecule, the AC50 under setting [1] was 23.1 µM [falling, single point].
Take `O=C(COC(=O)c1ccco1)c1ccc(F)cc1`: the cell number change was -16.2%.
For `COc1ccc(C[C@H](N)C(=O)N[C@H]2[C@@H](O)[C@H](n3cnc4c(N(C)C)ncnc43)O[C@@H]2CO)cc1`, the cell number change was -14.4%.
For the molecule `O=C(NC(=S)Nc1ccccc1N1CCCC1)c1cccc(F)c1`, the cell number change stood at 9.92%. Besides, the AC50 under setting [1] was 1.84 µM [rising, partial curve].
Take `COc1cc(C(=O)NNC(=O)c2ccc(S(=O)(=O)N3CCCCC3)cc2)cc(OC)c1OC`: the cell number change is -39.1%. Also, the concentration at half-maximal activity (AC50) under setting [2] is 0.231 µM [falling, full curve, poor fit]. The AC50 under setting [1] was 0.259 µM [falling, partial curve].
`O=C(NNS(=O)(=O)c1ccc2ccccc2c1)c1cccs1`: the cell number change was determined as 19.4%. Under setting [1], the AC50 was 23.1 µM [rising, single point].
For `CCSc1nnc(N)s1`, the cell number change was -12.6%.
Turning to `O=C(c1ncn[nH]1)N1CCN(c2nc(-c3ccccc3)cs2)CC1`, the cell number change was -7.93%. The AC50 under setting [1] is 16.4 µM [rising, partial curve].
Regarding `COc1ccccc1Nc1ncnc2c1c(C)c(C)n2CCCN(C)C`, the cell number change was -12.5%.
`CCc1ccc(OCC(=O)OC(C)C(=O)Nc2ccc(Cl)cn2)cc1` (stereo not drawn): the cell number change was -5.91%. Further, under setting [1], the AC50 is 0.0291 µM [falling, full curve, poor fit].
Regarding `CCCn1c(SCC(=O)Nc2c(C)cccc2CC)nnc1C(C)C`, the cell number change worked out at 24.4%. Under setting [1], the AC50 was 1.64 µM [rising, partial curve].
In the case of `O=C1NCC(O)=C1C=NC12CC3CC(CC(C3)C1)C2`, the cell number change is -10.7%.
In the case of `CCN(CC)c1ccc(/C=C(\C#N)C(=O)NCc2ccccc2)cc1`, the cell number change is -22.3%. Besides, the half-maximal activity concentration (AC50) under setting [1] was 29.1 µM [falling, single point].
Take `CC(C)Cc1nc(N2CCN(C(=O)c3ccccc3)CC2)c(C#N)c2c1CCC2`: the cell number change was -3.27%. The half-maximal activity concentration (AC50) under setting [1] was 10.3 µM [falling, partial curve].
On to `O=C(Cc1ccccc1)Nc1ccc(NC(=O)c2cccs2)c(Cl)c1`, for which the AC50 under setting [2] is 0.103 µM [rising, full curve, poor fit] and the AC50 under setting [1] was 6.51 µM [rising, single point].
With `Cc1cccc(N2CC(O)(c3cccs3)[N+]3=C2CCCC3)c1` (stereo not drawn), the cell number change was -40.7%. The AC50 under setting [2] is 20.6 µM [falling, single point]. Also, under setting [1], the AC50 was 29.1 µM [falling, single point].
In the case of `Cc1ccc(S(=O)(=O)N2CCC(c3nnc(SCCN4CCCC4)n3C)CC2)cc1`, the cell number change is 5.26%.
On the same count and under the same terms, then `CCOc1cc(-c2nc(C)c(C(C)=O)n2O)ccc1OCC(=O)Nc1ccc(F)cc1`, with -6.51%.
Consider `CC(C)(C)NC(=O)c1cccc(NC(=O)CSc2ccc(Cl)cc2)c1`, for which the cell number change amounted to 18.1%. In addition, under setting [1], the concentration at half-maximal activity (AC50) was 1.84 µM [rising, single point].
As to `CCCCN1C(=O)C(=O)N(CC(=O)c2ccc3c(c2)CCCC3)C1=O`, the cell number change turned out to be 9.14%. Under setting [1], the AC50 was 3.66 µM [rising, full curve].
For `CCOC(=O)c1ccccc1N1C(=O)CSC1=S`, the cell number change is -0.811%. Under setting [2], the half-maximal activity concentration (AC50) was 0.00731 µM [falling, full curve, poor fit]. Besides, the AC50 under setting [1] is 6.51 µM [falling, single point].
Consider `CCOc1ccc(S(=O)(=O)N(C)CC(=O)NCc2ccccn2)cc1Cl`, for which the cell number change was 18.3%. Moreover, the half-maximal activity concentration (AC50) under setting [1] was 0.116 µM [falling, full curve, poor fit].
Regarding `Cn1c(=O)c2c(ncn2Cc2cccc(Cl)c2)n(C)c1=O`, the cell number change was -2.87%.
`O=C(CSc1nnc(C2CCCCC2)n1Cc1ccccc1)NCc1ccco1`: the cell number change worked out at 42%. In addition, the AC50 under setting [2] is 11.6 µM [rising, partial curve, poor fit]. Besides, under setting [1], the AC50 is 6.51 µM [rising, single point].
In the case of `Cc1noc(NS(=O)(=O)c2ccc(NC(=O)c3ccc(OC(C)C)cc3)cc2)c1C`, the cell number change stood at 0.239%. In addition, the AC50 under setting [1] is 4.11 µM [falling, single point].
As for `O=C(Nc1ccc(N2CCOCC2)c(C(=O)O)c1)c1ccco1`, the cell number change is -75.5%. The AC50 under setting [2] was 18.4 µM [falling, single point]. The AC50 under setting [1] is 29.1 µM [falling, single point].
With `CC(=O)Oc1c(Br)cc(N(C(C)=O)S(=O)(=O)c2ccccc2)c2ccccc12`, the cell number change is -35.2%. Moreover, under setting [2], the AC50 was 14.6 µM [falling, single point]. The AC50 under setting [1] was 18.4 µM [falling, partial curve].
In the case of `O=C(NCC1(c2ccccc2)CCCC1)c1ccccc1Br`, under setting [1], the AC50 was 18.4 µM [rising, single point].
With `COc1ccc(C(C#N)N2CCCCCC2)cc1OC` (stereo not drawn), the cell number change is -11.4%. The AC50 under setting [1] was 3.66 µM [rising, single point].
With `Cc1ccc(S(=O)(=O)N/N=C/c2cc([N+](=O)[O-])ccc2O)cc1[N+](=O)[O-]`, the cell number change worked out at 19%. Moreover, the AC50 under setting [2] was 0.00461 µM [rising, full curve, poor fit]. In addition, the AC50 under setting [1] was 3.66 µM [rising, partial curve, poor fit].
With `Nc1nc2c(c(=O)[nH]1)CN(Cc1ccccc1)CC2`, the cell number change was determined as 18%. In addition, under setting [1], the concentration at half-maximal activity (AC50) is 32.6 µM [rising, single point].
As for `COc1ccc(/C=C(\C#N)C(=O)N=CN(C)C)cc1`, the cell number change is -86.6%. Moreover, under setting [2], the AC50 was 29.1 µM [falling, single point]. Also, under setting [1], the AC50 was 29.1 µM [falling, single point].
For `Cc1cc(O)cc2c1C(=O)/C(=C/c1ccco1)O2`, the cell number change was -13.3%. In addition, the AC50 under setting [1] was 0.0651 µM [falling, full curve, poor fit].
Take `CCN(CCO)C(=O)c1ccc2oc(Cc3ccc(Cl)cc3)nc2c1`: the cell number change is 2.24%. In addition, the AC50 under setting [1] is 29.1 µM [rising, single point].
Consider `Cn1c(CCN2CCN(c3ccccn3)CC2)nc2cc(NC(=O)COc3ccc([N+](=O)[O-])cc3)ccc21`, for which the cell number change was found to be 14.5%. Besides, the AC50 under setting [1] is 8.2 µM [falling, partial curve, poor fit].
With `O=C(C1CCC1)N1CCN(S(=O)(=O)c2ccc([N+](=O)[O-])cc2)CC1`, the cell number change came out at 3.43%. For the same molecule, the AC50 under setting [1] is 16.4 µM [falling, single point].
For `Cc1ccc(Nc2ncc3c(n2)CC(C)(C)CC3=O)cc1`, the cell number change turned out to be 9.84%.
On to `O=c1ccc(Oc2nc(N3CCCCC3)nc(N3CCCCC3)n2)n[nH]1`, for which the cell number change was found to be 3.88%. Under setting [1], the AC50 is 5.8 µM [falling, single point].
With `COc1ccccc1N1CCN(C(=O)c2oc3ccc(Br)cc3c2C)CC1`, the cell number change was -6.09%. Besides, under setting [1], the AC50 is 6.51 µM [rising, single point].
As for `COc1ccccc1N1CCN(C(=O)c2oc3ccc(F)cc3c2C)CC1`, the cell number change is 19.3%.
`O=[N+]([O-])c1ccc2ncnc(N3CCN(Cc4ccc5c(c4)OCO5)CC3)c2c1`: the cell number change was -38.5%. Further, under setting [2], the half-maximal activity concentration (AC50) was 4.11 µM [falling, full curve]. Also, the AC50 under setting [1] is 5.17 µM [falling, full curve].
As for `COc1ccc(NCc2cc3ccccc3[nH]c2=O)cc1`, the cell number change was -22.5%. Besides, the AC50 under setting [1] was 9.2 µM [rising, partial curve].
On to `COCc1cc(C)nc2sc(C(=O)Nc3ccccc3F)c(N)c12`, for which the cell number change was 0.293%.
Regarding `CCCN(Cc1nnc(-c2ccccc2Cl)o1)C(=O)c1oc2ccccc2c1C`, the cell number change was 15.5%. Also, the AC50 under setting [2] is 1.3 µM [rising, full curve]. Besides, the concentration at half-maximal activity (AC50) under setting [1] was 20.6 µM [rising, single point].
For the molecule `Cc1csc(NC(=O)Cc2coc3cc(C)c(C(C)C)cc23)n1`, the cell number change was -66.5%. Under setting [2], the AC50 was 16.4 µM [falling, partial curve]. Further, the AC50 under setting [1] was 16.4 µM [falling, partial curve].
